# Measurements reported in patent publication US20260008847A1 (ELPISCIENCE SUZHOU BIOPHARMA, published 2026).
# Amino acid sequences for entries named in this document (tags omitted). Residues count along the entry.
# UniProt Q8N423, residues 22-458: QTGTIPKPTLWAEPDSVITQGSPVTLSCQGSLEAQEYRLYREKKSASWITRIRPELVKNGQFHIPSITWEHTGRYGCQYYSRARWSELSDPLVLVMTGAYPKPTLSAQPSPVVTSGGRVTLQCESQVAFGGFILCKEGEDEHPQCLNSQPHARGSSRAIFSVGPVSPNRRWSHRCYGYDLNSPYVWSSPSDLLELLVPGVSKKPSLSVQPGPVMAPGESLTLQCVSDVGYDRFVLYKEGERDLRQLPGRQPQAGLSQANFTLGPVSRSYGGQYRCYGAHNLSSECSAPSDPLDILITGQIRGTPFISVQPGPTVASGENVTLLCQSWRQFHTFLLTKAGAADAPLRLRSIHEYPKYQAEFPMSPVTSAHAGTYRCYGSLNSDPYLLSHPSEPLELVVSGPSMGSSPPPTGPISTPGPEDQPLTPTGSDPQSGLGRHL
# Changes are numbered by the printed parent chain. In names and notes the source's numbering stands. These are yes or no findings as the source states them, for the method shown. Some entries that bind do so weakly or less than the wild type.
# B1: monoclonal antibody secreted by hybridoma clone 8G2F10 (antibody, V domains shown)
# VH: QVQLQQSGAELAKPGASVKLSCKASGYTFTSYWMYWVKQRPGQGLEWIGHINPSSGYTKYNQKFKDKATLTADKSSSTAYMQLSSLTYEDSAVYYCARDPNWDNYWGQGTTLTVSS
# VL: DIVMTQSHKFMSTSVGDRVSITCKASQDVSIAVAWYQQKPGQSPKLLIYSASYRYTGVPDRFTGSGSGTDFTFTISSVQAEDLAVYYCQQHYSTPYTFGGGTKLEIK
# notes: Mouse hybridoma antibody
# B2: 043c (antibody, V domains shown)
# VH: B1 VH
# VL: B1 VL
# notes: Human IgG4 chimeric antibody with S228P mutation at the Fc region; also called chimeric antibody 043c; parental antibody 043c
# B3: 1E1 (antibody, V domains shown)
# VH: QVQLQQWGAGLLKPSETLSLTCAVYGGSFSGYYWSWIRQPPGKGLEWIGEINHSGSTNYNPSLKSRVTISVDTSKNQFSLKLSSVTAADTAVYYCARLPTRWVTTRYFDLWGRGTLVTVSS
# VL: QSVLTQPPSVSGAPGQRVTISCTGSSSNIGAGYDVHWYQQLPGTAPKLLIYGNSNRPSGVPDRFSVSKSGASASLAITGLQAEDEADYYCQSFDNSLSAYVFGGGTQLTVL
# notes: Human IgG4 monoclonal antibody with S228P in the constant region, made according to US 2018/0298096 A1; also called benchmark antibody 1E1
# B4: J-19 (antibody, V domains shown)
# VH: QVTLKESGPGILQPSHTLSLTCSFSGFSLNTYAMGVSWIRQPSGKGLEWLASIWWNGNKYNNPSLKSRLTVSKDTSNNQAFLKVTSVDTADTATYYCAHSRIIRFTDYVMDAWGQGASVTVSS
# VL: DIQMTQSPASLSTFLGEPVTIECRASEDIYNDLAWYQQKPGKSPQLLIYNANSLHTGVPSRFSGSGSGTQYSLKINSLQSEDVASYFCQQYYDYPLTFGSGTKLEIK
# notes: Human IgG4 monoclonal antibody with S228P in the constant region, made according to WO 2019/126514 A2; also called benchmark antibody J-19
# B5: hu043.04 (antibody, V domains shown)
# VH: QVQLVQSGAEVKKPGASVKVSCKASGYTFTSYWMYWVRQAPGQGLEWIGHINPSSGYTKYNQKFKDRATLTADTSTSTAYMELSSLRSEDTAVYYCARDPNWDNYWGQGTTVTVSS
# VL: DIQMTQSPSSLSASVGDRVTITCKASQDVSIAVAWYQQKPGKAPKLLIYSASYRYTGVPSRFSGSGSGTDFTFTISSLQPEDIATYYCQQHYSTPYTFGGGTKLEIK
# notes: Humanized human IgG4 antibody with S228P in the constant region; also called hu043VH6 / hu043VL2
# B6: hu043.01 (antibody, V domains shown)
# VH: B5 VH
# VL: B5 VL with Q3V, T20S, S60D
# notes: Humanized human IgG4 antibody with S228P in the constant region; also called hu043VH6 / hu043VL4
# B7: hu043.02 (antibody, V domains shown)
# VH: B5 VH with A68V, L70M, A79V
# VL: B5 VL with Q3V, T20S, S60D
# notes: Humanized human IgG4 antibody with S228P in the constant region; also called hu043VH7 / hu043VL4
# B8: hu043.03 (antibody, V domains shown)
# VH: B5 VH with V5Q, V20L, A40R
# VL: B5 VL with Q3V, T20S, S60D
# notes: Humanized human IgG4 antibody with S228P in the constant region; also called hu043VH8 / hu043VL4
# B9: hu043.05 (antibody, V domains shown)
# VH: B5 VH with A68V, L70M, A79V
# VL: B5 VL
# notes: Humanized human IgG4 antibody with S228P in the constant region; also called hu043VH7 / hu043VL2
# B10: hu043.06 (antibody, V domains shown)
# VH: B5 VH with V5Q, V20L, A40R
# VL: B5 VL
# notes: Humanized human IgG4 antibody with S228P in the constant region; also called hu043VH8 / hu043VL2
# B11: hu043.07 (antibody, V domains shown)
# VH: B5 VH with R67K, T74K
# VL: B5 VL with L11M, L78V
# notes: Humanized human IgG4 antibody with S228P in the constant region; also called hu043VH9 / hu043VL1
# B12: hu043.08 (antibody, V domains shown)
# VH: B5 VH with R67K, T74K, V112L
# VL: B5 VL with L11M, L78V
# notes: Humanized human IgG4 antibody with S228P in the constant region; also called hu043VH10 / hu043VL1
# Legend:
# [1] = molecular target: 6×His-tagged human LILRB2 ECD recombinant protein (human) (UniProt Q8N423); test: Bio-Layer Interferometry
# [2] = molecular target: 6×His-tagged human LILRB2 ECD recombinant protein (human) (UniProt Q8N423); test: Bio-Layer Interferometry (Octet), 1:1 model
# [3] = molecular target: 6×His-tagged human LILRB2 ECD recombinant protein (human) (UniProt Q8N423); test: ELISA, 0.5 µg/mL antibody on coated LILRB2 ECD
# [4] = molecular target: 6×His-tagged human LILRB2 ECD recombinant protein (human) (UniProt Q8N423); test: Bio-Layer Interferometry (Octet)
# [5] = molecular target: 6×His-tagged human LILRB2 ECD recombinant protein (human) (UniProt Q8N423); test: Surface Plasmon Resonance (Biacore)
binder,measurement,setting,value
B1,binding,[1],binds
B2,binding,[2],binds
same,binding,[3],binds
B3,binding,[3],binds
B4,binding,[3],binds
B5,binding,[4],binds
B6,binding,[4],binds
B7,binding,[4],binds
B8,binding,[4],binds
B9,binding,[4],binds
B10,binding,[4],binds
B11,binding,[5],binds
B12,binding,[5],binds
